For one molecule, binding results are on record in article PMC4339604.

One experiment has as its target VvSLY1a (Vitis vinifera). The experiment is described as follows: two-hybrid; S. cerevisiae L40; VvSLY1 as LexA DNA-BD bait, VvDELLA as GAL4 AD prey; growth on 3-AT and beta-galactosidase liquid assay.
A further experiment has as its target VvSLY1b (Vitis vinifera). Described as above.

These are yes or no findings as the source states them, for the method shown. Binding calls can cover weak binding; strength is not graded here.

B1: VvDELLA1 (protein, UniProt Q8S4W7 1-590)
chain: MKREYHHPHHPTCSTSPTGKGKMWDADPQQDAGMDELLAVLGYNVKASDMAEVAQKLEQLEEVIVNAQEDGLSHLASETVHYNPSDLSNWLGSMLSEFNPTPNCALDNPFLPPISPLDYTNCSTQPKQEPSIFDSPSLDYDLKAIPGKALYSHIEQPPQQPPAPPLYQRDNKRLKPTTSATANSVSSVIGGWGVPTESARPVVLVDSQETGIRLVHTLMACAEAVQQENLKLAEALVKQIGFLAVSQAGAMRKVATYFAEGLARRIYRLYPDKPLDSSFSDILQMHFYETCPYLKFAHFTANQAILEAFEGKKRVHVIDFSMKQGMQWPALMQALALRPGGPPSFRLTGIGPPSTDNTDHLHEVGWKLAQLAETIHVEFEYRGFVANSLADLDASMLELRDGESVAVNSVFELHSLLARPGGIERVLSAVKDMKPDIVTIVEQEANHNGPVFLDRFTESLHYYSTLFDSLEGCGVSPVNTQDKLMSEVYLGQQICNVVACEGPERVERHETLAQWRARLGSAGFDPVNLGSNAFKQASMLLALFAGGDGYRVEENNGCLMLGWHTRPLIATSAWQLANKPALPSSTPASN
On to B1, for which the binding result with VvSLY1a (Vitis vinifera) and with VvSLY1b (Vitis vinifera) was “binds” throughout.
